Results are given in words; binding and its absence hold for the method and conditions named. Binding seen in cells or lysates may run through a third protein. Some results given as binding are weak or reduced against the parent protein; the word gives no strength.
Molecular target: MYC (human (endogenous in ESCC cell lines)) (UniProt P01106)
Test: co-IP; ESCC cell lysate in non-denaturing lysis buffer with protease inhibitors; incubated with anti-MYC or anti-ANXA2 antibody (rabbit or mouse IgG as control) at 4 °C overnight; Protein G agarose beads 4 h at 4 °C; washed with PBS; Western blot

Protein sequences, listed by entry. Tags and fused reporters are not part of them.
UniProt P01106: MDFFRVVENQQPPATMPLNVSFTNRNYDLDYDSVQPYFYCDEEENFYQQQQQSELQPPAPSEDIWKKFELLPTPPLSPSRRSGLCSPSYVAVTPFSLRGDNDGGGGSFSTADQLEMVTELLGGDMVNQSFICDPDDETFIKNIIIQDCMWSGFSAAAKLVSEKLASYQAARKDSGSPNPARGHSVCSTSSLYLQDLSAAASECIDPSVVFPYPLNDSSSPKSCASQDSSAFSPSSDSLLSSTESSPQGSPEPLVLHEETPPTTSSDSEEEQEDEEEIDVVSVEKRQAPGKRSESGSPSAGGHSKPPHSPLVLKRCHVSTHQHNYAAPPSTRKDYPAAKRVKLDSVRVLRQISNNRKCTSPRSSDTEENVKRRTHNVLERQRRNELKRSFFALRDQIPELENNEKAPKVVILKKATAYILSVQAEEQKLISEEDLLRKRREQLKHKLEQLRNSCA
UniProt P07355: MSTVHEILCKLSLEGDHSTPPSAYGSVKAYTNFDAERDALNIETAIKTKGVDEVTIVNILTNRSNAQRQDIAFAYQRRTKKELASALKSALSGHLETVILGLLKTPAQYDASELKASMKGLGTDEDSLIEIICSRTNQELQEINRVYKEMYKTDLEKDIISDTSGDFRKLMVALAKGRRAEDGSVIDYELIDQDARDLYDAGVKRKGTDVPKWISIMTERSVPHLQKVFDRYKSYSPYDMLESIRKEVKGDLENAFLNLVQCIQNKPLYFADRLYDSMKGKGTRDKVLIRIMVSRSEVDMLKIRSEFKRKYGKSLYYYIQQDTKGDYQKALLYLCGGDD

Substance: ANXA2 (Annexin A2) (from UniProt P07355 1-339)
- binding: binds
